No constants are given. Whether binding was seen depends on the method and setting. Some results given as binding are weak or reduced against the parent protein; the word gives no strength.
Target: Cynomolgus monkey IL-18Rα, biotinylated (cynomolgus monkey)
Experiment: SPR, biotinylated receptor on streptavidin capture chip, single-cycle kinetics, FIG. 37A

Chains of the proteins cited; added tags and fusions are not shown. Lines headed by an entry give the natural chain unless they say otherwise; changes in a name come on top.
UniProt Q14116: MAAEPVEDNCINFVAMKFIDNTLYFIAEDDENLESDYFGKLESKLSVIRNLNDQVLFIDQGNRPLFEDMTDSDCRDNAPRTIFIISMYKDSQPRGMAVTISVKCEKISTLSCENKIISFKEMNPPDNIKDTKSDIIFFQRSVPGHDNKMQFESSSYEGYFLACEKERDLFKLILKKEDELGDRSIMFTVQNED

Human Interleukin-18 (mature form), wild type (from UniProt Q14116 37-193) (ligand)
binding: binds

From patent US20230277625A1
